# Measured values from PMC9839322.
# System: GmTOE4a:MBP
# Test: EMSA
# Details: unlabeled probe at 400x used as specific competitor; EMSA/Gel-shift binding buffer (Biyuntian/Beyotime), 20 ul, room temperature, 25 min; salt and pH not …; recombinant protein; label: 5' 6-FAM
row,Sequence,binding result
1,GTGTGGTGGTTCACGAGGGCACAAGGGTTC (double strand) [probe-FT5a],binds
2,TGTTTGAAAAAAACGAGGTGATCAGTTTTA (double strand) [probe-FT2a],binds

# For at least one entry, the source does not settle the construct or the ends of the probe.
